Results on 119 compounds are retold here after PubChem BioAssay AID1508615 (Milbrandt Lab, Department of Genetics, Washington …, 2020).

The chains behind the UniProt entries cited, without tags or fusion partners. Where a name states a change or a piece, a line headed by the entry shows the natural chain unless it says otherwise.
UniProt Q6SZW1: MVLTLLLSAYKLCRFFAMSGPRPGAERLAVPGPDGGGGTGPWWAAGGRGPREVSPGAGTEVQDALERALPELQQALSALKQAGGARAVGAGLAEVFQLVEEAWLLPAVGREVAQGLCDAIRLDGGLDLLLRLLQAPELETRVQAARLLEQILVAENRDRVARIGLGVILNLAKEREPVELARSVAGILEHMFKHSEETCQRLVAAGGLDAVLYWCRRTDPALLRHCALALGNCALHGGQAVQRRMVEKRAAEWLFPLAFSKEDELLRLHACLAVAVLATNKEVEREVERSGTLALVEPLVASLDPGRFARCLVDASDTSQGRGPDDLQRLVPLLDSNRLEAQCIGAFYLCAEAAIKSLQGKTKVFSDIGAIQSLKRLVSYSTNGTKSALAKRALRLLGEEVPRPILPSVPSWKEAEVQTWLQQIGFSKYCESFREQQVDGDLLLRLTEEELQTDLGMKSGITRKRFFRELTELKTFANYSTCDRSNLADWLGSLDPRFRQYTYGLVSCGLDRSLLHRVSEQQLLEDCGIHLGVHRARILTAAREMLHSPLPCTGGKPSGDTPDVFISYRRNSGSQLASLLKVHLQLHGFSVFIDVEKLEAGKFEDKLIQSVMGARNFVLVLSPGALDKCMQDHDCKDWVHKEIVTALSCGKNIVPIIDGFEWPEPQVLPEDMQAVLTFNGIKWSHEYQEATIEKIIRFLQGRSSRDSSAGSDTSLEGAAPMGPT

Molecules are shown by their SMILES. Among all 1,600 compounds or so, about 20 (1%) were called active.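 How the source made its calls: active means ratio of uncleaved NAD to its breakdown product ADP-ribose above 4, meaning the enzyme was inhibited; inactive means the rest.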 Some of the results follow.

In the test the target is NAD(+) hydrolase SARM1 (Homo sapiens) (UniProt Q6SZW1). In words: inhibition of SAM-TIR NAD hydrolysis to ADPR – cell lysate, HPLC readout, primary screen (AID 1508615).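 Further: substrate NAD at 5 µM with 60 min at 37 °C.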 The conditions noted are these: HEK293T SAM-TIR lysate, NAD/ADPR ratio by HPLC; at 5 µM; active compounds read high.
Take `FC(F)(F)c1nc2nc(Cl)c(Cl)nc2n1CCCN1CCOCC1`: the NAD/ADPR ratio is inactive: 3.
Next, `COc1cc2c(c3c1c(=O)c1cccc(F)c1n3C)C=CC(C)(C)O2`: inactive: 3.
The figure for `COc1ccccc1C1OC2=C(Nc3ccc([N+](=O)[O-])cc3N2)C1=O` (centres undefined) is inactive: 3.
For the compound `COc1ccc(/C(C#N)=C/c2cccnc2)cc1`, the NAD/ADPR ratio is inactive: 3.
With `O=C(Cn1ccc(=O)[nH]c1=O)Nc1nccs1`, the NAD/ADPR ratio was inactive: 3.
For `CC(C)(C)CC(C)(C)N1CNC(=S)NC1`, the NAD/ADPR ratio is inactive: 3.
Take `O=C(Nc1csnn1)c1csnn1`: the NAD/ADPR ratio was inactive: 3.
With `Cn1[nH]cc(/C=N/C(N)=O)c1=O`, the NAD/ADPR ratio is inactive: 3.
For the compound `Nc1ccc2c(c1)Cc1cc(Cl)c(Cl)cc1-2`, the NAD/ADPR ratio was inactive: 3.
Next, `O=C(O)CCNC1CCCCC1`: inactive: 3.
Consider `NC(=O)c1ccccc1NC(=O)COc1ccc(Cl)cc1`, for which the NAD/ADPR ratio was inactive: 3.
For `S=c1c2[nH]cnc2ncn1CCSc1ncnc2nc[nH]c12`, the NAD/ADPR ratio was inactive: 3.
Turning to `O=C(NC(=S)Nc1cc(Cl)ccc1O)c1cccc(Br)c1`, the NAD/ADPR ratio was inactive: 3.
Next, `COC1C(=O)CCC2(CO2)C1(O)C1(C)OC1CC=C(C)C` (centres undefined): inactive: 3.
On to `Cc1cn(C2CC(O)C(CO)O2)c(=O)n(Cc2ccccc2)c1=O` (centres undefined), for which the NAD/ADPR ratio is inactive: 3.
Next, `CC(C)(C)n1nc(C2CC2)cc1NC(=O)Nc1ccc(Cl)cc1`: inactive: 3; `Cc1cnc2cc(Cl)ccc2c1SCC(=O)O`: inactive: 3; `CSc1nc(=S)c2[nH]c(=S)[nH]c2[nH]1`: inactive: 3.
In the case of `CC(C)(C(N)=O)c1ccccc1`, the NAD/ADPR ratio was inactive: 3.
For `NC(=NOC(=O)c1ccccc1)C(Cc1ccccc1)C(=O)NOC(=O)c1ccccc1` (centres undefined), the NAD/ADPR ratio was inactive: 3.
For the compound `CSc1nsc(NN)n1`, the NAD/ADPR ratio was inactive: 3.
For the compound `Cc1cc2c(cc1C)N(C(=O)CCl)CC(=O)N2`, the NAD/ADPR ratio is inactive: 3.
With `CC1(c2ccccc2)O[C@@H]2C[C@H]3[C@@H]4CCC5=CC(=O)C=C[C@]5(C)[C@@]4(F)[C@@H](O)C[C@]3(C)[C@]2(C(=O)CO)O1` (some centres undefined), the NAD/ADPR ratio is inactive: 3.
For the compound `NCC(=O)c1cccc2ccc[n+]([O-])c12`, the NAD/ADPR ratio was inactive: 3.
Regarding `CC(C)CC(NC(=O)OCc1ccccc1)C(=O)NC(Cc1c[nH]c2ccccc12)C(=O)O` (centres undefined), the NAD/ADPR ratio was inactive: 3.
For `O=c1n(CC2CO2)c(=O)n(CC2CO2)c(=O)n1CC1CO1` (centres undefined), the NAD/ADPR ratio is inactive: 3.
Regarding `COc1ccccc1/C=C1\Cc2ccccc2C1=O`, the NAD/ADPR ratio was inactive: 3.
Consider `Cc1cc2c(cc1C)NC1=C(N2)OC(c2cccc(O)c2)C1=O` (centres undefined), for which the NAD/ADPR ratio is inactive: 3.
For `N[C@H](C(=O)O)[C@H]1ON=C(Cl)[C@@H]1O`, the NAD/ADPR ratio is inactive: 3.
The figure for `Cc1ccc(NC(=O)NNC(=O)CSC2CCc3ccccc32)c(C)c1` (centres undefined) is inactive: 3; for `CC1(C)OC2C(CO)OC(n3cnc4c(=S)nc[nH]c43)C2O1` (centres undefined) it is inactive: 3; for `O=C1c2ccccc2C(=O)c2c1cccc2-n1nnc2ccccc21` it is inactive: 3.
Next, `C[C@]12CC[C@H](O)CC1=CC[C@@H]1[C@@H]2CC[C@]2(C)c3[nH]ncc3C[C@@H]12`: inactive: 3; `Cc1ccc(NC(=O)Nc2cccnc2)cc1NC(=O)Nc1cccnc1`: inactive: 3.
For the compound `C#C[C@]1(O)CC[C@H]2[C@@H]3CCc4cc(OC)ccc4[C@H]3CC[C@@]21C`, the NAD/ADPR ratio is inactive: 3.
The figure for `C#CCOCC1CN(c2ccccc2)C(=O)O1` (centres undefined) is inactive: 3; for `O=C1c2ccccc2C(=O)C1c1ccccn1` it is inactive: 3; for `OC(c1ccccc1)(c1ccccc1)c1nccn1-c1ccccc1` it is inactive: 3.
With `C=CCSc1n[nH]c(-c2cccs2)n1`, the NAD/ADPR ratio was inactive: 3.
Consider `COc1ccc(NC(=O)c2cc3ccc4c5ccccc5[nH]c4c3cc2O)cc1`, for which the NAD/ADPR ratio is inactive: 3.
As to `c1ccc2c(c1)-c1cccc3cncc-2c13`, the NAD/ADPR ratio is inactive: 3.3.
For `O=C(c1cccnc1)N1CCN(c2ccccc2Cl)CC1`, the NAD/ADPR ratio was inactive: 3.
`S=C1N(c2ccccc2)CN(C2CCCCC2)CN1c1ccccc1`: the NAD/ADPR ratio was inactive: 3.
Turning to `N#CC1=CC2CN(Cc3ccccc3)C1C1C(=O)N(c3ccccc3)C(=O)C21` (centres undefined), the NAD/ADPR ratio is inactive: 3.
As to `CC(C)(C)N1CCC1CN` (centres undefined), the NAD/ADPR ratio was inactive: 3.
In the case of `Cc1nc2ccccc2nc1N1CCCC1`, the NAD/ADPR ratio was inactive: 3.
As for `COc1cc(C(=O)OC(C)CN2CCOCC2)cc(OC)c1OC` (centres undefined), the NAD/ADPR ratio was inactive: 3.
Next, `O=S(=O)(O)c1ccc(N=Nc2ccccc2)cc1`: inactive: 3; `CN=C1C=C/C(=N/N=c2\ccn(O)cc2C)C=C1C`: inactive: 3; `CN(C)S(=O)(=O)c1ccccc1N=C=S`: inactive: 3.
With `NCCN1CCNCC1`, the NAD/ADPR ratio was inactive: 3.
As for `C=CCOC(=O)/C=C/C(=O)NC(N)=O`, the NAD/ADPR ratio is inactive: 3.
Regarding `O=c1c(-c2ccc(O)cc2)coc2cc(O)cc(O)c12`, the NAD/ADPR ratio is inactive: 3.
As to `Cc1cc(NC(=O)c2ccccc2)nc(C)n1`, the NAD/ADPR ratio was inactive: 3.
Consider `c1ccc(-c2cc3ccccc3[nH]2)cc1`, for which the NAD/ADPR ratio is inactive: 3.
The figure for `CC1=CN2C(c3cccc([N+](=O)[O-])c3)=NON(c3ccc(C)cn3)C2C=C1` (centres undefined) is inactive: 3; for `Cc1ccc(S(=O)(=O)NC(=O)Nc2nccs2)cc1` it is inactive: 3; for `Nc1ccc(N=Nc2ccccc2Cl)c(N)n1` it is inactive: 3.
Take `COc1ccc(C(=O)O)nc1C`: the NAD/ADPR ratio is inactive: 3.
The figure for `Brc1ccc(-c2csc(Nc3nc(-c4ccc(Br)cc4)cs3)n2)cc1` is inactive: 3; for `C=CCNC(=S)Nc1c(N)n(C)c(=O)n(C)c1=O` it is inactive: 3.
As to `Oc1ccccc1Nc1ccccn1`, the NAD/ADPR ratio is inactive: 3.
The figure for `O=C(Nc1ccc2ccccc2c1)c1cccc(F)c1` is inactive: 3; for `O=C(Nc1ccc(O)c(C(=O)O)c1)Oc1ccccc1` it is inactive: 3.
Consider `CCNC(=O)Oc1ccc[nH]c1=O`, for which the NAD/ADPR ratio is inactive: 3.
The figure for `COc1cccc(-c2nnc(N)o2)c1` is inactive: 3; for `Cc1nc2ccccc2c(N)c1-c1cc(C)c2c(C)nc3ccccc3c2n1` it is inactive: 3; for `O=[N+]([O-])c1cnc(Sc2ccncn2)s1` it is inactive: 3.
Consider `O=C1OC(Cc2ccccc2)C(c2ccccc2)C1=O` (centres undefined), for which the NAD/ADPR ratio is inactive: 3.
As to `CCCOc1nc2c(c(=O)n(C)c(=O)n2C)n1C`, the NAD/ADPR ratio is inactive: 3.
Take `OCc1ncccc1O`: the NAD/ADPR ratio is inactive: 3.
The figure for `CCOC(=O)c1c(C)c(C(=O)OCC)n(C)c1C` is inactive: 3.
Next, `[O-]/[N+](=C\c1ccccc1)CC1(O)CCCCC1`: inactive: 3; `CCOC(CNCc1cc(C)c2[nH]c3ccccc3c2c1C)OCC`: inactive: 3; `C#CC1(O)CCC2C3CCC4=Cc5oncc5CC4(C)C3CCC21C` (centres undefined): inactive: 3.
For `Nc1nnc(-c2cccnc2)s1`, the NAD/ADPR ratio is inactive: 3.
For the compound `Cc1ccc(C(N)=Nc2ccccc2)cc1`, the NAD/ADPR ratio was inactive: 3.
Take `O=C(Nc1ccc(Br)c2ccccc12)c1ccc2ccccc2c1O`: the NAD/ADPR ratio is inactive: 3.
As to `COc1cccc(/C=C2\CCc3ccccc3C2=O)c1`, the NAD/ADPR ratio was inactive: 3.
With `NS(=O)(=O)c1ccc(N=Nc2ccc(=O)[nH]c2O)cc1`, the NAD/ADPR ratio is inactive: 3.
With `CC(=O)OCCN1c2ccccc2Sc2cnccc21`, the NAD/ADPR ratio was inactive: 3.
On to `Cc1ccc(NC(=O)Nc2nc3ccccc3s2)cc1NC(=O)Nc1nc2ccccc2s1`, for which the NAD/ADPR ratio is inactive: 3.
With `O=C1OCC/C1=C\OCCCO/C=C1\CCOC1=O`, the NAD/ADPR ratio is inactive: 3.
For the compound `COc1cc(-c2ccc(NC(=O)NC3CC3)c(OC)c2)ccc1NC(=O)NC1CC1`, the NAD/ADPR ratio was inactive: 3.
As to `Nc1n[nH]c(CO)n1`, the NAD/ADPR ratio was inactive: 3.
On to `Cc1cc(C)n2c(C)nnc2c1`, for which the NAD/ADPR ratio was inactive: 3.
With `COc1c(/C=N/NC(N)=O)c(OC)c(OC)c2c1CCO2`, the NAD/ADPR ratio is inactive: 3.
For the compound `CC(=O)NC1=C/C(=C\[N+](=O)[O-])C=C1O`, the NAD/ADPR ratio was inactive: 3.
As for `CCOC(=O)/C(C#N)=C/c1c[nH]c2ccccc12`, the NAD/ADPR ratio is inactive: 3.
For the compound `Nc1ccc(C(=O)C(=O)c2ccc(N)cc2)cc1`, the NAD/ADPR ratio was inactive: 3.
Turning to `CC1=C(C(N)=O)S(=O)(=O)c2ccccc21`, the NAD/ADPR ratio was inactive: 3.
As for `O=C1/C(=C/c2ccc([N+](=O)[O-])cc2)CCc2ccccc21`, the NAD/ADPR ratio was inactive: 3.
On to `CC(C)(C)n1nc(C2CC2)cc1NC(=O)Nc1ccccc1`, for which the NAD/ADPR ratio is inactive: 3.
`Nc1ccc(-c2nc3nc(N)nc(N)c3nc2-c2ccc(N)cc2)cc1`: the NAD/ADPR ratio was inactive: 3.
On to `CC(C)(NC(=O)c1cc(Cl)c2ccccc2c1O)C(=O)O`, for which the NAD/ADPR ratio is inactive: 3.
On to `COc1ccc(N=Cc2c(O)ccc3c2oc2cc(Cl)c(O)c(Cl)c23)cc1`, for which the NAD/ADPR ratio is inactive: 3.
Turning to `CC(=O)NS(=O)(=O)c1ccc2sc(C)nc2c1`, the NAD/ADPR ratio is inactive: 3.
On to `O=C(O)c1cc2ccccc2cc1Nc1ccccc1`, for which the NAD/ADPR ratio was inactive: 3.
For the compound `CC1(C)N=C(N)N=C(N)N1c1cccc(CN)c1`, the NAD/ADPR ratio was inactive: 3.
Next, `CCCCCC(=O)N1CCCC1`: inactive: 3; `Cc1ccc(Nc2ccc(N)cc2S(=O)(=O)O)cc1`: inactive: 3.
`CC(=O)Nc1ccc(OC(=O)Oc2ccc(NC(C)=O)cc2)cc1`: the NAD/ADPR ratio is inactive: 3.
In the case of `N=C1CCC(=N)c2c1c(O)c1ccccc1c2O`, the NAD/ADPR ratio is inactive: 3.
For the compound `CCOC(=O)Nc1ccc2nc(Sc3ccc(Cl)cc3)sc2c1`, the NAD/ADPR ratio is inactive: 3.
For the compound `COc1cc(C2NC(=O)C(C#N)=C(Nc3cccc(C)c3)S2)ccc1O` (centres undefined), the NAD/ADPR ratio is inactive: 3.
On to `COc1ccc2c3c1OC1CC(O)C=CC31CCN(C)C2` (centres undefined), for which the NAD/ADPR ratio was inactive: 3.
Next, `Cc1cc(NC(=O)NC(=O)c2ccccc2NC(=O)C(C)N)ccc1Oc1ncc(Br)cn1` (centres undefined): inactive: 3.
In the case of `CCCCn1cnc2c(=S)nc(N)[nH]c21`, the NAD/ADPR ratio was inactive: 3.
Turning to `O=c1[nH]cc(Cl)cc1Cl`, the NAD/ADPR ratio was inactive: 3.
For the compound `O=C(Nc1cccc(-c2ccccc2)c1)N1CCN(C(=O)Nc2cccc(-c3ccccc3)c2)CC1`, the NAD/ADPR ratio is inactive: 3.
`CC(O)(c1ccccc1)C(c1ccccc1)C1CCCCN1` (centres undefined): the NAD/ADPR ratio is inactive: 3.
Turning to `CC1(C)N=C(N)NC(=NCCCOc2ccc([N+](=O)[O-])cc2)N1`, the NAD/ADPR ratio was inactive: 3.
Next, `COC(=O)Nc1csc2c1NC(=O)CCCC2`: inactive: 3; `CCOC(=O)CSc1nc2nc(Cl)c(Cl)nc2[nH]1`: inactive: 3; `Oc1ccc2ccccc2c1N=Nc1nccs1`: inactive: 3.
The figure for `Clc1ccc(Oc2nc3c(Cl)cccc3s2)cc1Cl` is inactive: 3.
For `CCc1ccc(CCN2C(=O)c3ccccc3C2=O)nc1`, the NAD/ADPR ratio is inactive: 3.
On to `CC(=O)c1cc(O)c2ccccc2c1O`, for which the NAD/ADPR ratio is active: 10.2.
Next, `CC(C)C(=O)Nc1cccnc1`: inactive: 3.
